Values of other authors as cited in article PMC7762046, “Fragments of a Wheat Hevein-Like Antimicrobial Peptide Augment the Inhibitory Effect of a Triazole Fungicide on Spore Germination of Fusarium oxysporum and Alternaria solani” (Antibiotics, 2020).

Test system: soil-borne and foliar cereal-damaging fungi
Conditions: cited from earlier work
From the text: Along with the structural and functional similarities with other hevein-like AMPs, WAMPs have a number of specific characteristics, display an in vitro inhibitory activity towards various microorganisms including plant pathogenic fungi, and are able to inhibit a fungal effector fungalysin that cleaves plant chitinases.

AQRCGDQARGAKCPNCLCCGKYGFCGSGDAYCGKGSCQSQCRGCR [WAMP-2, hevein-like cysteine-rich antimicrobial peptide of wheat Triticum kiharae, 45 residues, recombinant from E. coli BL21 (DE3)]
Sensitizing activity to tebuconazole (Folicur EC 250): inactive as a sensitizer
